# From PubChem BioAssay AID248 (DTP/NCI, 2004)
# The list shows only some results of the screen, not a fair sample: it gathers tests that were run many times, whatever their T/C, doses with no T/C, and many T/C values between a quarter and a half above the control. Further doses and runs are listed elsewhere. T/C gives the treated animals as a percentage of the vehicle group. Some entries give survivors of the animals treated and no T/C: the source files T/C as zero there, which appears to mark a toxic dose or a test without result, not a measured value. Some survivor counts are full or nearly so, which does not show that the dose was tolerated: survival well below the control is almost never listed, so the zero probably covers shortened survival too. Counts of survivors are from the toxicity check (mostly the fifth day) where no day follows; animals may have died later. Schedules are NCI's codes, taken here to give the interval after Q, in days (D) or hours (H), and the number of doses after X. Some molecules as drawn cover several salts, stereoisomers or complexes of the source; a dose is that of the sample tested. Counts like (3×) say how often a value occurs here. Some entries were tested several times; the results are listed from low to high. For survival time, this PubChem deposit counts one and a half times the control or more as active, and values a quarter to a half above the control carry no call in these data; other NCI protocols may use other cut-offs. Some T/C values are followed by the survivors on the day toxicity was checked, most often the fifth; without a count, all were alive then.
# Test system: L1210 leukemia ip in BDF1 mice, survival T/C
# Assay: NCI In Vivo Anticancer Drug Screen. Data for tumor model L1210 Leukemia (intraperitoneal) in B6D2F1 (BDF1) mice
# Settings: higher T/C = longer survival
smiles,measurement,setting,value
COc1cc(NS(C)(=O)=O)ccc1Nc1c2ccccc2nc2ccccc12,T/C,"T/C endpoint: mean survival time, dose: 0.25 mg/kg/injection, schedule: Q01DX009 (ip), vehicle: saline with Tween-80",143 % of control
same,T/C,"T/C endpoint: mean survival time, dose: 0.5 mg/kg/injection, schedule: Q01DX009 (ip), vehicle: other",130 % of control
same,T/C,"T/C endpoint: mean survival time, dose: 0.5 mg/kg/injection, schedule: Q03HX008 (ip), vehicle: other",134 % of control
same,T/C,"T/C endpoint: mean survival time, dose: 0.59 mg/kg/injection, schedule: Q01DX009 (ip), vehicle: saline",143 % of control
same,T/C,"T/C endpoint: mean survival time, dose: 0.75 mg/kg/injection, schedule: Q01DX009 (ip), vehicle: Klucel (hydroxypropylcellulose) (HPC)",132 % of control
same,T/C,"T/C endpoint: mean survival time, dose: 0.89 mg/kg/injection, schedule: Q01DX009 (ip), vehicle: saline",142 % of control
same,T/C,"T/C endpoint: mean survival time, dose: 1.0 mg/kg/injection, schedule: Q01DX009 (ip), vehicle: other",139 % of control
same,T/C,"T/C endpoint: mean survival time, dose: 1.0 mg/kg/injection, schedule: Q03HX008 (ip), vehicle: other",138 % of control
same,T/C,"T/C endpoint: mean survival time, dose: 1.35 mg/kg/injection, schedule: Q01DX009 (ip), vehicle: Klucel (hydroxypropylcellulose) (HPC)",140 % of control
same,T/C,"T/C endpoint: mean survival time, dose: 1.5 mg/kg/injection, schedule: Q01DX009 (ip), vehicle: Klucel (hydroxypropylcellulose) (HPC)",146 % of control
same,T/C,"T/C endpoint: mean survival time, dose: 1.56 mg/kg/injection, schedule: Q01DX009 (ip), vehicle: saline with Tween-80",141 % of control
same,T/C,"T/C endpoint: mean survival time, dose: 2.0 mg/kg/injection, schedule: Q01DX009 (ip), vehicle: Klucel (hydroxypropylcellulose) (HPC)",138 % of control
same,T/C,"T/C endpoint: mean survival time, dose: 2.0 mg/kg/injection, schedule: Q01DX009 (ip), vehicle: other",142 % of control
same,T/C,"T/C endpoint: mean survival time, dose: 2.05 mg/kg/injection, schedule: Q01DX009 (ip), vehicle: saline",148 % of control
same,T/C,"T/C endpoint: mean survival time, dose: 3.12 mg/kg/injection, schedule: Q01DX009 (ip), vehicle: saline",141 % of control
same,T/C,"T/C endpoint: mean survival time, dose: 3.75 mg/kg/injection, schedule: Q04DX003 (ip), vehicle: other",129 % of control
same,T/C,"T/C endpoint: mean survival time, dose: 4.0 mg/kg/injection, schedule: Q01DX009 (ip), vehicle: other",135 % of control
same,survivor count,"T/C endpoint: mean survival time, dose: 4.0 mg/kg/injection, schedule: Q03HX008 (ip), vehicle: other",7 of 10
same,T/C,"T/C endpoint: mean survival time, dose: 4.68 mg/kg/injection, schedule: Q01DX009 (ip), vehicle: saline",146 % of control
same,T/C,"T/C endpoint: mean survival time, dose: 5.0 mg/kg/injection, schedule: Q01DX009 (sc), vehicle: saline",130 % of control
same,T/C,"T/C endpoint: mean survival time, dose: 6.0 mg/kg/injection, schedule: Q01DX009 (sc), vehicle: saline",131 % of control
same,T/C,"T/C endpoint: mean survival time, dose: 7.5 mg/kg/injection, schedule: Q01DX001 (ip), vehicle: other",126 and 131 % of control
same,T/C,"T/C endpoint: mean survival time, dose: 8.0 mg/kg/injection, schedule: Q01DX009 (ip), vehicle: Klucel (hydroxypropylcellulose) (HPC)",141 % of control
same,T/C,"T/C endpoint: mean survival time, dose: 10.0 mg/kg/injection, schedule: Q01DX009 (sc), vehicle: saline",133 and 146 % of control [8 of 10 alive]
same,survivor count,"T/C endpoint: mean survival time, dose: 12.0 mg/kg/injection, schedule: Q01DX009 (ip), vehicle: Klucel (hydroxypropylcellulose) (HPC)",6 of 6
same,T/C,"T/C endpoint: mean survival time, dose: 12.5 mg/kg/injection, schedule: Q01DX001 (ip), vehicle: saline",135 % of control
same,survivor count,"T/C endpoint: mean survival time, dose: 12.5 mg/kg/injection, schedule: Q01DX009 (ip), vehicle: saline with Tween-80",8 of 10
same,survivor count,"T/C endpoint: mean survival time, dose: 14.0 mg/kg/injection, schedule: Q01DX009 (ip), vehicle: water",3 of 8 (2×)
same,T/C,"T/C endpoint: mean survival time, dose: 15.0 mg/kg/injection, schedule: Q01DX001 (ip), vehicle: Klucel (hydroxypropylcellulose) (HPC)",142 % of control
same,survivor count,"T/C endpoint: mean survival time, dose: 15.0 mg/kg/injection, schedule: Q01DX001 (ip), vehicle: clinical formulation",6 of 10
same,T/C,"T/C endpoint: mean survival time, dose: 15.0 mg/kg/injection, schedule: Q01DX001 (ip), vehicle: other",143 and 144 % of control
same,survivor count,"T/C endpoint: mean survival time, dose: 16.0 mg/kg/injection, schedule: Q01DX009 (ip), vehicle: Klucel (hydroxypropylcellulose) (HPC)",6 of 6
same,survivor count,"T/C endpoint: mean survival time, dose: 16.0 mg/kg/injection, schedule: Q01DX009 (ip), vehicle: other",10 of 10
same,T/C,"T/C endpoint: mean survival time, dose: 18.75 mg/kg/injection, schedule: Q01DX001 (ip), vehicle: saline with Tween-80",142 % of control
same,survivor count,"T/C endpoint: mean survival time, dose: 20.0 mg/kg/injection, schedule: Q01DX009 (ip), vehicle: saline with Tween-80",6 of 10
same,T/C,"T/C endpoint: mean survival time, dose: 20.0 mg/kg/injection, schedule: Q01DX009 (sc), vehicle: saline",135 % of control
same,survivor count,"T/C endpoint: mean survival time, dose: 23.0 mg/kg/injection, schedule: Q01DX009 (ip), vehicle: water",0 of 8 (2×)
same,T/C,"T/C endpoint: mean survival time, dose: 25.0 mg/kg/injection, schedule: Q01DX001 (ip), vehicle: saline",146 % of control
same,survivor count,"T/C endpoint: mean survival time, dose: 25.0 mg/kg/injection, schedule: Q01DX009 (ip), vehicle: acetone",6 of 6
same,survivor count,"T/C endpoint: mean survival time, dose: 25.0 mg/kg/injection, schedule: Q01DX009 (ip), vehicle: saline with Tween-80",5 of 10 and 6 of 10
same,survivor count,"T/C endpoint: mean survival time, dose: 25.0 mg/kg/injection, schedule: Q01DX009 (ip), vehicle: saline",6 of 6
same,survivor count,"T/C endpoint: mean survival time, dose: 30.0 mg/kg/injection, schedule: Q01DX001 (ip), vehicle: clinical formulation",7 of 10
same,survivor count,"T/C endpoint: mean survival time, dose: 30.0 mg/kg/injection, schedule: Q01DX001 (ip), vehicle: other",6 of 10
same,survivor count,"T/C endpoint: mean survival time, dose: 30.0 mg/kg/injection, schedule: Q04DX003 (ip), vehicle: other",5 of 10
same,T/C,"T/C endpoint: mean survival time, dose: 33.0 mg/kg/injection, schedule: Q01DX001 (ip), vehicle: saline",143 and 147 % of control
same,survivor count,"T/C endpoint: mean survival time, dose: 39.0 mg/kg/injection, schedule: Q01DX009 (ip), vehicle: water",0 of 8 (2×)
same,survivor count,"T/C endpoint: mean survival time, dose: 40.0 mg/kg/injection, schedule: Q01DX009 (ip), vehicle: saline with Tween-80",0 of 10
same,survivor count,"T/C endpoint: mean survival time, dose: 45.0 mg/kg/injection, schedule: Q01DX001 (ip), vehicle: clinical formulation",2 of 10
same,survivor count,"T/C endpoint: mean survival time, dose: 50.0 mg/kg/injection, schedule: Q01DX001 (ip), vehicle: Klucel (hydroxypropylcellulose) (HPC)",2 of 3
same,T/C,"T/C endpoint: mean survival time, dose: 50.0 mg/kg/injection, schedule: Q01DX001 (ip), vehicle: saline",142 % of control
same,survivor count,"T/C endpoint: mean survival time, dose: 50.0 mg/kg/injection, schedule: Q01DX009 (ip), vehicle: saline with Tween-80",5 of 10
same,survivor count,"T/C endpoint: mean survival time, dose: 50.0 mg/kg/injection, schedule: Q01DX009 (ip), vehicle: saline",0 of 6
same,survivor count,"T/C endpoint: mean survival time, dose: 60.0 mg/kg/injection, schedule: Q01DX001 (ip), vehicle: clinical formulation",4 of 10
same,T/C,"T/C endpoint: mean survival time, dose: 75.0 mg/kg/injection, schedule: Q01DX001 (ip), vehicle: saline with Tween-80",133 [9 of 10 alive] and 143 % of control
same,survivor count,"T/C endpoint: mean survival time, dose: 100.0 mg/kg/injection, schedule: Q01DX001 (ip), vehicle: Klucel (hydroxypropylcellulose) (HPC)",2 of 3
same,survivor count,"T/C endpoint: mean survival time, dose: 100.0 mg/kg/injection, schedule: Q01DX001 (ip), vehicle: saline",2 of 6
same,survivor count,"T/C endpoint: mean survival time, dose: 120.0 mg/kg/injection, schedule: Q01DX001 (ip), vehicle: Klucel (hydroxypropylcellulose) (HPC)",6 of 10
same,survivor count,"T/C endpoint: mean survival time, dose: 150.0 mg/kg/injection, schedule: Q01DX001 (ip), vehicle: saline with Tween-80",6 of 10
same,survivor count,"T/C endpoint: mean survival time, dose: 200.0 mg/kg/injection, schedule: Q01DX001 (ip), vehicle: saline",1 of 6
same,survivor count,"T/C endpoint: mean survival time, dose: 240.0 mg/kg/injection, schedule: Q01DX001 (ip), vehicle: Klucel (hydroxypropylcellulose) (HPC)",0 of 10
same,survivor count,"T/C endpoint: mean survival time, dose: 300.0 mg/kg/injection, schedule: Q01DX001 (ip), vehicle: saline with Tween-80",1 of 10
same,survivor count,"T/C endpoint: mean survival time, dose: 400.0 mg/kg/injection, schedule: Q01DX001 (ip), vehicle: saline",0 of 6
same,T/C,"T/C endpoint: median survival time, dose: 2.0 mg/kg/injection, schedule: Q01DX009 (sc), vehicle: other",129 % of control
same,T/C,"T/C endpoint: median survival time, dose: 4.0 mg/kg/injection, schedule: Q01DX009 (sc), vehicle: other",135 % of control
same,survivor count,"T/C endpoint: median survival time, dose: 16.0 mg/kg/injection, schedule: Q01DX009 (oral), vehicle: other",10 of 10
same,survivor count,"T/C endpoint: median survival time, dose: 16.0 mg/kg/injection, schedule: Q01DX009 (sc), vehicle: other",9 of 10
same,survivor count,"T/C endpoint: median survival time, dose: 32.0 mg/kg/injection, schedule: Q01DX009 (oral), vehicle: other",8 of 10
